Results as given in patent publication US20240209080A1, “FOLR1 BINDING AGENTS, CONJUGATES THEREOF AND METHODS OF USING THE SAME” (PROFOUNDBIO US CO., priority 2021, published 2024).
These are yes or no findings as the source states them, for the method shown. Some results given as binding are weak or reduced against the parent protein; the word gives no strength.

Protein sequences, listed by entry. Tags and fused reporters are not part of them. Lines headed by an entry give the natural chain unless they say otherwise; changes in a name come on top. Residues count along the entry.
UniProt P15328: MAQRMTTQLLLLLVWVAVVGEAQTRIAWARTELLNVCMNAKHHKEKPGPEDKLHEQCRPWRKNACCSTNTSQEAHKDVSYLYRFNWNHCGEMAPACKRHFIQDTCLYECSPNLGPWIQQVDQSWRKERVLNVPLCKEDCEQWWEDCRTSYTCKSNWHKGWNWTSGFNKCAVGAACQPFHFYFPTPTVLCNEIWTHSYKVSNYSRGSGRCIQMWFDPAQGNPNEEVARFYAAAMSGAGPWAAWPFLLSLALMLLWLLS
human FOLR1 on cells (Hela, RPTEC/TERT1, OVCAR3, OV90, IGROV-1, JEG-3, KB, NCI-H441): residues 25-234 of P15328
human FOLR1 protein, His Tag (ACRO-FO1-H52H1): residues 25-233 of P15328

Columns and labels:
[1] = molecular target: human FOLR1 on cells (Hela, RPTEC/TERT1, OVCAR3, OV90, IGROV-1, JEG-3, KB, NCI-H441) (human) (UniProt P15328); experiment: flow cytometry, purified antibody on Hela cells, 50 to 0.00001 ug/ml
[2] = molecular target: human FOLR1 on cells (Hela, RPTEC/TERT1, OVCAR3, OV90, IGROV-1, JEG-3, KB, NCI-H441) (human) (UniProt P15328); experiment: flow cytometry, purified antibody on RPTEC/TERT1 cells, 50 to 0.00001 ug/ml
[3] = molecular target: human FOLR1 on cells (Hela, RPTEC/TERT1, OVCAR3, OV90, IGROV-1, JEG-3, KB, NCI-H441) (human) (UniProt P15328); experiment: flow cytometry on RPTEC/TERT1 cells, transfection supernatant
[4] = molecular target: human FOLR1 protein, His Tag (ACRO-FO1-H52H1) (human) (UniProt P15328); experiment: ELISA, coated human FOLR1-His, transfection supernatant
[5] = molecular target: human FOLR1 on cells (Hela, RPTEC/TERT1, OVCAR3, OV90, IGROV-1, JEG-3, KB, NCI-H441) (human) (UniProt P15328); experiment: flow cytometry on Hela cells, transfection supernatant
[6] = molecular target: human FOLR1 on cells (Hela, RPTEC/TERT1, OVCAR3, OV90, IGROV-1, JEG-3, KB, NCI-H441) (human) (UniProt P15328); experiment: FACS on Hela and RPTEC/TERT1 cells, purified antibody
[7] = molecular target: cynomolgus FOLR1 protein, His Tag (ACRO, F01-C52H8) (cynomolgus); experiment: ELISA, coated cynomolgus FOLR1-His, transfection supernatant
[8] = molecular target: human FOLR1 on cells (Hela, RPTEC/TERT1, OVCAR3, OV90, IGROV-1, JEG-3, KB, NCI-H441) (human) (UniProt P15328); experiment: flow cytometry, HEK293 transfection supernatant on RPTEC/TERT1 cells, PE goat anti-human IgG
[9] = molecular target: human FOLR1 on cells (Hela, RPTEC/TERT1, OVCAR3, OV90, IGROV-1, JEG-3, KB, NCI-H441) (human) (UniProt P15328); experiment: flow cytometry, HEK293 transfection supernatant on Hela cells, PE goat anti-human IgG

- binding [1]: binds
- binding [2]: binds
- binding [3]: binds
- binding [4]: binds
- binding [5]: binds
- binding [6]: binds
- binding [7]: binds
- binding [8]: binds
- binding [9]: binds
B1: anti-FOLR1 antibody F40 (antibody, V domains shown)
VH: EVQLLESGGGVVQPGRSLRLSCAASGFTFSSYAMHWVRQAPGKGLEWVAVISYDGSNKYYADSVKGRFIISRDNSKNTVYLQMNSLRAEDTAVYYCARPTYVFTYTGSSFDYWGQGTQVTVSS
VL: DIQVTQSPSSLSASLGDTVSITCRASRGLTDSVAWYQQKPGQAPKLLIYAASTLQSGVPSRFGGSGSGSYFTLTITSLQPEDVATYYCQNYKSAPWTFGQGTKVEIK
